Assay [1] deals with XPA (human (endogenous in GMU6 skin fibroblasts)) (UniProt P23025). The experiment in a line: co-IP; XPA-IP of whole cell extracts of GM skin fibroblasts, control and UV-irradiated; PARP1 detected by immunoblot.
The target is the same in assay [2]. The experiment in a line: co-IP; XPA-IP (IgG mock IP as control) of the chromatin-bound (Ch) protein fraction of GMU6 cells, control and globally irradiated with 30 J/m^2 UVC, fractionated after 10 min; PARP1 and XPA detected by immunoblot.
The target is the same in assay [3]. The experiment in a line: condition: only in the nucleoplasmic fraction (control and UV-irradiated cells); co-IP; XPA-IP (IgG mock IP as control) of the nucleoplasmic (Np) fraction of GMU6 cells, control and globally irradiated with 30 J/m^2 UVC, fractionated after 10 min; PARP1 and XPA detected by immunoblot.

Chains of the proteins cited; added tags and fusions are not shown.
UniProt P23025: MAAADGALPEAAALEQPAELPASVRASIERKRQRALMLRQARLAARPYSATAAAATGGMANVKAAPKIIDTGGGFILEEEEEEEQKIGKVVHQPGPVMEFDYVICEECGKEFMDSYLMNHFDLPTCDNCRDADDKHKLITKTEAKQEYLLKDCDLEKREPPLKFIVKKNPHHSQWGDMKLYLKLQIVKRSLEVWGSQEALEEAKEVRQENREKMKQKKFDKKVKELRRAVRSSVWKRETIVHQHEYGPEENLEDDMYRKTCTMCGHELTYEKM
UniProt P09874: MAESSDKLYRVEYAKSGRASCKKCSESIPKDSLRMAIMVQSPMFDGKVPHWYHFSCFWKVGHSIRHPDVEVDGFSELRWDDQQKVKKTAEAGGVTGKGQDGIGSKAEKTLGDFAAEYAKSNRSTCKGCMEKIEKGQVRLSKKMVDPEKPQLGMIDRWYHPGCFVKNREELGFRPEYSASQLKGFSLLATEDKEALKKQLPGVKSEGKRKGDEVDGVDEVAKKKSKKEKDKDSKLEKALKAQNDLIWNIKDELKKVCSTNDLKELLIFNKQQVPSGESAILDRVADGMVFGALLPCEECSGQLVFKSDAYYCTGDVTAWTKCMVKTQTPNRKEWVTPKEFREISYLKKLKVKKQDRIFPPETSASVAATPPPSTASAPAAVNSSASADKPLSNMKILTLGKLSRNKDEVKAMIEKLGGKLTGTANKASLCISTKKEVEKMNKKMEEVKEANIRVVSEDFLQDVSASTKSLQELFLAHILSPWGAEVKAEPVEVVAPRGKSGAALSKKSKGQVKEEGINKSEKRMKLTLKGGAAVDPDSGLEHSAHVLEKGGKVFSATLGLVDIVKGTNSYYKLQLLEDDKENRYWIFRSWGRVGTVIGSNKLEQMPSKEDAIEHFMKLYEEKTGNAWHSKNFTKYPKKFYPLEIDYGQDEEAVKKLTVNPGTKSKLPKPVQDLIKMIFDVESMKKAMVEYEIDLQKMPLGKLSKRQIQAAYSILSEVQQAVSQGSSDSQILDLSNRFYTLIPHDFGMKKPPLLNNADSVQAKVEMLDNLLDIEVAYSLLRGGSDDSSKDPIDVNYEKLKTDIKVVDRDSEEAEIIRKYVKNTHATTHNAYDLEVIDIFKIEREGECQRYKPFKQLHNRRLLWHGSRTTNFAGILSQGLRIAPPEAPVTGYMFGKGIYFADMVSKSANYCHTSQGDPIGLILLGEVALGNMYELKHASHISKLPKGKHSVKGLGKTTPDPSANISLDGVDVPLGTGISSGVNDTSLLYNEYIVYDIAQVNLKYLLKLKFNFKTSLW

These results are taken from paper PMC7705073.

Results are given in words; binding and its absence hold for the method and conditions named. Binding seen in cells or lysates may run through a third protein. Some results given as binding are weak or reduced against the parent protein; the word gives no strength.

For the substance “poly(ADP-ribose) polymerase-1 (PARP1) (from UniProt P09874 1-1014)”, the binding entry in assay [1] is “binds”; in assay [2] it was “binds”; in assay [3] it was “no binding”.
